# No constants are given. Whether binding was seen depends on the method and setting. In cells and extracts the contact can be indirect.
# Sequences of proteins named here, by UniProt entry; tags and fusion partners are left off. Residues count along the entry.
# UniProt P02545, residues 1-646: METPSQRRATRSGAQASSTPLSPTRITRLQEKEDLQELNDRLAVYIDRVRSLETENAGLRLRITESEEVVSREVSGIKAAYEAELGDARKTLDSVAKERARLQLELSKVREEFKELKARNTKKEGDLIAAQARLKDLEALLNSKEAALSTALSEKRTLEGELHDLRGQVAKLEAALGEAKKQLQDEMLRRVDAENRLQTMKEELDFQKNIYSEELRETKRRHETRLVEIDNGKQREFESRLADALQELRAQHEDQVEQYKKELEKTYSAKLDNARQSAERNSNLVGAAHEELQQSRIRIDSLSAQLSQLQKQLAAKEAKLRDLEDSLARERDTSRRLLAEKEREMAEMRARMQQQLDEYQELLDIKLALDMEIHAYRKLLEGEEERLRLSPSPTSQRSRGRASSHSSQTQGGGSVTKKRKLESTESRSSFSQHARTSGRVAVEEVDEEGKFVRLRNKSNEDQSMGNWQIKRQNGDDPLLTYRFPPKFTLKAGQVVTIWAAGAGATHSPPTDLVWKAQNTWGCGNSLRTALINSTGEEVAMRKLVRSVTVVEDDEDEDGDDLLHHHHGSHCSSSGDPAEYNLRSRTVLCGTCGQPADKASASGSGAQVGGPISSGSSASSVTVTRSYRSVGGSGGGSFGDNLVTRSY
# UniProt P06241: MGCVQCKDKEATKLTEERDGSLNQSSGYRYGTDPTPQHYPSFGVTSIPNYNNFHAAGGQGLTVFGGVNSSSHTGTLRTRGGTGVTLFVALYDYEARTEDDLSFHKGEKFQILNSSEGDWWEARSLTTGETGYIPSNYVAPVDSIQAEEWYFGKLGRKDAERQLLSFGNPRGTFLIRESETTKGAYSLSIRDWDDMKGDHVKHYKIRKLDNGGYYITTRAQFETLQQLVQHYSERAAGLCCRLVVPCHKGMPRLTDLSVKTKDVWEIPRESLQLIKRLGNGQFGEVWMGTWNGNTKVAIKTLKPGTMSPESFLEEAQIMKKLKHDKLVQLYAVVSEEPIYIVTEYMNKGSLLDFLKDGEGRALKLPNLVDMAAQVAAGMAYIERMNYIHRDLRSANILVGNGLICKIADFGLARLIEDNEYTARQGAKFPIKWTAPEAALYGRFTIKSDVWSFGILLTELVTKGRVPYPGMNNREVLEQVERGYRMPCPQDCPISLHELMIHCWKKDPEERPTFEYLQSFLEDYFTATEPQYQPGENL
# Target: A-type lamins (human (endogenous in HEK 293T)) (UniProt P02545)
# Experiment: co-IP; IP with anti-lamin A/C antibody (ab-108922) and protein A/G agarose from HEK 293T lysates (50 mM HEPES pH 7.4, 150 mM NaCl, 1 mM MgCl2, 1% Triton X-100, 4 °C); blots with anti-actin, anti-Fyn and anti-lamin A/C; cells transfected 24 h before with miR-125a-3p mimic, anti-miR or scramble-miR, Fyn vector, DN-Fyn vector or empty vector
substance,measurement,value
Fyn (from UniProt P06241 1-537) (enzyme),binding,no binding

# From publication PMC5440411
